Data taken from PMC7819943, “Rice protein-binding microarrays: a tool to detect cis-acting elements near promoter regions in rice”.
The other results are listed elsewhere or left out.

Each sequence was assayed against T1, OsSMF1 (Oryza sativa, UniProt Q6ZLB0 1-436) (assay: protein-binding microarray (RPBM); PBS, 2% BSA, 51.3 ng/ul salmon testes DNA, 50 uM zinc acetate, 200 nM TF, 25 C, 1 h; high values mean tight binding). Conditions: protein: recombinant; tags: N-terminal polyhistidine and DsRed monomer fusion (pET32a); chain copies: 2; label: CyDye5-dUTP incorporated in the synthesized complementary strand; 3' TTTTT single-stranded linker to array surface; dsDNA, one strand shown.
T1 sequence: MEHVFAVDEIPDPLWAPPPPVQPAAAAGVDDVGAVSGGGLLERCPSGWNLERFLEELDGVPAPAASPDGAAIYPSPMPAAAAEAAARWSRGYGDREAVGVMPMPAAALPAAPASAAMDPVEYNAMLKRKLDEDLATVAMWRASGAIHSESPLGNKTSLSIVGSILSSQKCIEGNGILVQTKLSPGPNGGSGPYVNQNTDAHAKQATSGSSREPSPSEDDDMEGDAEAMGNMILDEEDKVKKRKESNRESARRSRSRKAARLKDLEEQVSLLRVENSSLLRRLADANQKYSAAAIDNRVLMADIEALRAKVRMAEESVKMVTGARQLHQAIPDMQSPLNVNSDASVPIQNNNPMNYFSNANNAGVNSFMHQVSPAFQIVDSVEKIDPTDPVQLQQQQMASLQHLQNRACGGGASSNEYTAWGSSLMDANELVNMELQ
Procedure, shortened: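 In PBS with 2% BSA, salmon testes DNA and 50 µM zinc acetate, 200 nM protein was incubated on a custom Agilent array at 25 °C for 1 h and then washed off. The array had been made double-stranded by primer extension with Cy5-dUTP and blocked with 2% BSA. The proteins were transcription factors fused N-terminally to polyhistidine and DsRed, expressed in E. coli BL21-CodonPlus and purified on Ni–NTA. The binding signal is per-feature fluorescence intensity (arbitrary units) from an Axon 4000B scanner.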

Sequence	binding signal
TTTCGCCATTTCCGACAATGTACTTCACCACTGATCTGAACGGAGTCACCTAGTGCAG	64900 fluorescence intensity (a.u.)
GGACTATATAGTAGGAGTACGTCACTACGTCCTGTATAGGCGGAGTCACCTAGTGCAG	5840 fluorescence intensity (a.u.)
GGAGTATCATTTTGTCTATTCTATTTAGACACAACATGTTCGGAGTCACCTAGTGCAG	3920 fluorescence intensity (a.u.)
AACCTCGCCACCTCCTCCACGTTATGGCATCGCCTCCTCGCGGAGTCACCTAGTGCAG	6660 fluorescence intensity (a.u.)
TAACTTTGGATGAAGTTTTGGATTTTCGTGGCACGCTTTTCGGAGTCACCTAGTGCAG	4370 fluorescence intensity (a.u.)
GTAAAATTCCTCGTGATGACATGGACTGATATTTTCCCTGCGGAGTCACCTAGTGCAG	6110 fluorescence intensity (a.u.)
GCGCTAAAAGTTCTCCTGCGACGTCATCAGTGTAAAGGCTCGGAGTCACCTAGTGCAG	9600 fluorescence intensity (a.u.)
TTATAGGATGACATATAGCGGCTTAGGAGCGTTTGTAGAACGGAGTCACCTAGTGCAG	34100 fluorescence intensity (a.u.)
CGATCAAAGCGTGCCACCTACATCCTCGAGAGCGTCTCCCCGGAGTCACCTAGTGCAG	3650 fluorescence intensity (a.u.)
TTGATCCATACCTTACATTCTTGATTACACATTGCTGACTCGGAGTCACCTAGTGCAG	3600 fluorescence intensity (a.u.)
CGTCCAAATATTATTTCCTGCGCGTGGTTTACAAAAGAGGCGGAGTCACCTAGTGCAG	47300 fluorescence intensity (a.u.)
CCCATCAACGAATACGATGCGGCCATGACTCGGCGCAGGACGGAGTCACCTAGTGCAG	4320 fluorescence intensity (a.u.)
TTTCACCTGGTAAAGTTGTGTGTCAGCTGTGGTTTGCTGTCGGAGTCACCTAGTGCAG	6630 fluorescence intensity (a.u.)
ATCCTATCCTACGTGTCATATGCTCCACATCAGCGAGCGGCGGAGTCACCTAGTGCAG	23100 fluorescence intensity (a.u.)
TTTTACATATATATATGTCATGTAATTGACATAAGTAGACCGGAGTCACCTAGTGCAG	26100 fluorescence intensity (a.u.)
TTAAAGTATCCGCGCCCCTTTTATGCTAGCTGGAGCAAAACGGAGTCACCTAGTGCAG	19000 fluorescence intensity (a.u.)
CCCTTTCATCGGCGACGACTCATCGTCGTCATCGTTCGTCCGGAGTCACCTAGTGCAG	4410 fluorescence intensity (a.u.)
ATTCCAGTCCTCTCCATGGTAGTCAACGTCAATTTCTCACCGGAGTCACCTAGTGCAG	3840 fluorescence intensity (a.u.)
CTCGTGCAAGGAAGACATGTCTGCATCTCCATAGTCAAACCGGAGTCACCTAGTGCAG	4380 fluorescence intensity (a.u.)
TAGGATCCATATGAGTCAATGATATGTGGGTCAGGATGGTCGGAGTCACCTAGTGCAG	3940 fluorescence intensity (a.u.)
ATGACGCAAATTCTCAGGTACACGTTTGGTGCCCCGGAGCCGGAGTCACCTAGTGCAG	3360 fluorescence intensity (a.u.)

Sequence	binding signal
CAATGTGGTCACGTGAATTCTCTCTGTCAGTTTTGATGTGCGGAGTCACCTAGTGCAG	3870 fluorescence intensity (a.u.)
CCCTCACCTTATCCCGAAGGACACGTGCGACTTCTTCGGTCGGAGTCACCTAGTGCAG	5050 fluorescence intensity (a.u.)
ATGTAATCCAAATGGACCCCACGTGGAACATGCTCACAGTCGGAGTCACCTAGTGCAG	10100 fluorescence intensity (a.u.)
CGGAGGCAGGAACAAGTTGGCGGCGACCATCTTGACCAGCCGGAGTCACCTAGTGCAG	3400 fluorescence intensity (a.u.)
TGAGAAATTCTTGCTAGATGTGTTGTACCATTATCAGCAGCGGAGTCACCTAGTGCAG	4580 fluorescence intensity (a.u.)
ACGCTCGCCGCGCCGGCACGCCATTCCCTTCTCGTCAGGTCGGAGTCACCTAGTGCAG	3220 fluorescence intensity (a.u.)
CTTCTGGCTCTGGGTACGTACTCATGAGTCAGGAAAGGAACGGAGTCACCTAGTGCAG	4640 fluorescence intensity (a.u.)
GGCCACGCCGCCGCATACTCTCTGCCACCTAGCATCATCACGGAGTCACCTAGTGCAG	4030 fluorescence intensity (a.u.)
TACTGCCCCACGTGTTGCAAGATCTACAACTGCAATAGACCGGAGTCACCTAGTGCAG	4240 fluorescence intensity (a.u.)
CTCCTGTGAGGAACAAACGGTTGAGATGGTGCCACGTGGCCGGAGTCACCTAGTGCAG	26700 fluorescence intensity (a.u.)
CCGCCGCCACATTGATGGTAATAGTTGGATCCGCCGCCTCCGGAGTCACCTAGTGCAG	3590 fluorescence intensity (a.u.)
CGCCCTTGCTACCCGTAGATGTCATGTCTGATGTTGCTCCCGGAGTCACCTAGTGCAG	4150 fluorescence intensity (a.u.)
ACACTAACTAGTACAAAGGATTATGCGTGACGAGCTGGATCGGAGTCACCTAGTGCAG	3410 fluorescence intensity (a.u.)
TTTTATGCAGTCCAATAACCAAAGAACACTTGAAAATAACCGGAGTCACCTAGTGCAG	34300 fluorescence intensity (a.u.)
CGGCGTGCCGCACCGGCGTGGCGTCACGCTGGCCACGGAACGGAGTCACCTAGTGCAG	7400 fluorescence intensity (a.u.)
TCCCACGTATAGGGTCCCACTTGTCAGTGACGTTTTGCGTCGGAGTCACCTAGTGCAG	4270 fluorescence intensity (a.u.)
AGGCTTTCAGACCGCTCTGTACGTGACGTGGCCTACTCATCGGAGTCACCTAGTGCAG	32500 fluorescence intensity (a.u.)
GGGTCCATTTGGTAACTGACTCCACGTTCGATGGATCAACCGGAGTCACCTAGTGCAG	3540 fluorescence intensity (a.u.)
GAATTGGATAGCAGACTACGGCGACTGCCACACAGGGTCTCGGAGTCACCTAGTGCAG	5750 fluorescence intensity (a.u.)
TTATGCCAGCTATTGCCGCAATTCCCTCCTCTTATCTCAACGGAGTCACCTAGTGCAG	5930 fluorescence intensity (a.u.)
GCGCCGGAACACCACCCTGATCTACTCAGCCGCGGCCGCCCGGAGTCACCTAGTGCAG	3710 fluorescence intensity (a.u.)

In a second layout: results already given.
Sequence | binding signal
CCCTTTCATCGGCGACGACTCATCGTCGTCATCGTTCGTCCGGAGTCACCTAGTGCAG | 4410 fluorescence intensity (a.u.)
ATTCCAGTCCTCTCCATGGTAGTCAACGTCAATTTCTCACCGGAGTCACCTAGTGCAG | 3840 fluorescence intensity (a.u.)
CTCGTGCAAGGAAGACATGTCTGCATCTCCATAGTCAAACCGGAGTCACCTAGTGCAG | 4380 fluorescence intensity (a.u.)
TAGGATCCATATGAGTCAATGATATGTGGGTCAGGATGGTCGGAGTCACCTAGTGCAG | 3940 fluorescence intensity (a.u.)

Later entries

Sequence	binding signal
CGCGTCCTCCGCTCCACTGCACGTAAGCCCGTGCGATGCGCGGAGTCACCTAGTGCAG	4080 fluorescence intensity (a.u.)
TGAATCTATACACTCTTCTATTCAGATTCGTTGTACTATGCGGAGTCACCTAGTGCAG	3870 fluorescence intensity (a.u.)
CAATTTACAAATTTATCACATTATCATCGCGTCGATTATACGGAGTCACCTAGTGCAG	3160 fluorescence intensity (a.u.)
AGGTTGGCCCAGCCTTGGCGTCATCTTCGTCTTCCCCAGCCGGAGTCACCTAGTGCAG	4020 fluorescence intensity (a.u.)
TATATATGCACCGAGACACATATGAATCATCACACGTCTTCGGAGTCACCTAGTGCAG	3550 fluorescence intensity (a.u.)
TCGGCCACTAGCATTTCGCCACGTGGACCGGACGCTCTGGCGGAGTCACCTAGTGCAG	15900 fluorescence intensity (a.u.)
AGTTGCACTGTAATTATAGTGTAATTACGTGTAGTAACACCGGAGTCACCTAGTGCAG	4630 fluorescence intensity (a.u.)
GCCGCCCGTCGCCGTCACACCCCTCTCACCACCACCACCACGGAGTCACCTAGTGCAG	3150 fluorescence intensity (a.u.)
TTGGAGACGCGTCCCGTGACGTCATCGTCGTCCCCGACTCCGGAGTCACCTAGTGCAG	20000 fluorescence intensity (a.u.)
TATAACAATTGTTTTATATTGCCACATATGGTGAGAAGCGCGGAGTCACCTAGTGCAG	6660 fluorescence intensity (a.u.)
GCCTCTTAGCCCACGTGCGCCCTCCCGCGTCTCGCCCAAGCGGAGTCACCTAGTGCAG	4530 fluorescence intensity (a.u.)
AAAAGCAAAAGCAAAAGAAACACGTCCTTATTCCTCTCTCCGGAGTCACCTAGTGCAG	3910 fluorescence intensity (a.u.)
GCTATAAGTGTGTTGCCTACGTAGAATGCCACATCGGCCACGGAGTCACCTAGTGCAG	9120 fluorescence intensity (a.u.)
AGAAAGAGGAGACTGACGTTGACATGTCAGCTGACATGTACGGAGTCACCTAGTGCAG	5560 fluorescence intensity (a.u.)
ATGGTTGTGATTTGTTTAGGTCGAGTAAAGGAGGAATTCCCGGAGTCACCTAGTGCAG	3240 fluorescence intensity (a.u.)
TAATTCTTCATGGTGTAATGCTTTATAAATTGTGTCATCTCGGAGTCACCTAGTGCAG	3230 fluorescence intensity (a.u.)
GCTTCTGCCTCCGGCGACACGTATGTCCATCTATCTCGCCCGGAGTCACCTAGTGCAG	10300 fluorescence intensity (a.u.)
ATAACTCGCATGCTAACTTGAGACGATTGGACTCCTAACTCGGAGTCACCTAGTGCAG	32500 fluorescence intensity (a.u.)
TATTTTGTTATTTGTTGACGTGTATTTTAAAGAATGACTTCGGAGTCACCTAGTGCAG	9880 fluorescence intensity (a.u.)
CCTTGTAACACTCGACCATAATCTCACACACAGGAGTAGGCGGAGTCACCTAGTGCAG	3600 fluorescence intensity (a.u.)
TACAATAGGGACCCATCTGGTGTGTGCAGCGGCGCTCGTGCGGAGTCACCTAGTGCAG	3560 fluorescence intensity (a.u.)

Sequence	binding signal
ATTCGTCTCATAATTTACACGCAATCCGTGTAATTAATTACGGAGTCACCTAGTGCAG	3680 fluorescence intensity (a.u.)
CTTCAGCAGCGAAGCCGGTGACAGTCACGCTTTTATTTACCGGAGTCACCTAGTGCAG	3460 fluorescence intensity (a.u.)
CACGCATAGAATACGTGTGTAGAGTATAGACACACACGTACGGAGTCACCTAGTGCAG	3300 fluorescence intensity (a.u.)
GTTGGGAGGTAGCCGTCAGCACCCACCCTCACTTTCGGCGCGGAGTCACCTAGTGCAG	5840 fluorescence intensity (a.u.)
TCCGTCTCATTCATCACTAATCTATCTAAACTAAAGCCGACGGAGTCACCTAGTGCAG	3690 fluorescence intensity (a.u.)
ACGCGCGAACGCCCGTCCGTTAAACCCACTCACCGCCATGCGGAGTCACCTAGTGCAG	3280 fluorescence intensity (a.u.)
ACCAGCCCATACGCGTGTACGGACCACAATTGCGGCCTTACGGAGTCACCTAGTGCAG	4360 fluorescence intensity (a.u.)
TGCGTATGATCCATACCCGATATAATGCGCGTAGACACAACGGAGTCACCTAGTGCAG	3560 fluorescence intensity (a.u.)
GCCACTACCGCTCGCCCACACATTGTCATTATGTCAACCCCGGAGTCACCTAGTGCAG	4100 fluorescence intensity (a.u.)
GTGCCGGCTTCGCATGCGTCAGGCGGGCAAACGGGTAGGTCGGAGTCACCTAGTGCAG	3420 fluorescence intensity (a.u.)
CAACATTATCCCGAAGCGTCCCATCCACGCGACGCGGCACCGGAGTCACCTAGTGCAG	3540 fluorescence intensity (a.u.)
GATCAAACCAGCGGCAGATGAGGGCGCAAAGAGAAAGAGCCGGAGTCACCTAGTGCAG	4210 fluorescence intensity (a.u.)
ACGCAAGGACGTCACTGCGGGTGCAGTATTAACACGCGGCCGGAGTCACCTAGTGCAG	4860 fluorescence intensity (a.u.)
CGGTGATCGGGCACCTCCACCTCATGTCCGGCATGCCGCACGGAGTCACCTAGTGCAG	3420 fluorescence intensity (a.u.)
GACAAATGACTACAATAACCCAATTTAATAAACACAGTACCGGAGTCACCTAGTGCAG	3540 fluorescence intensity (a.u.)
ACTGGTAACGGCTAGTCCGCCGCGCCACGAAACCTCCAAACGGAGTCACCTAGTGCAG	21400 fluorescence intensity (a.u.)
GCGTACGGCTGCCTAATGCAGAGCCTGACGTGGCGAGCTGCGGAGTCACCTAGTGCAG	17400 fluorescence intensity (a.u.)
AAGTGCTTTCAGCTGACTCCCGATGTTTATACATTTGCCACGGAGTCACCTAGTGCAG	3180 fluorescence intensity (a.u.)
TAGACTAATTTTCGAAAGTTAAAACATTTGATGTCACGCACGGAGTCACCTAGTGCAG	4050 fluorescence intensity (a.u.)
CATCATCAGGATCATCTCCCTGCCGCCGCCGCCGAGTGAACGGAGTCACCTAGTGCAG	4430 fluorescence intensity (a.u.)
ACCGATTAACCCTTAGTTCTGCCACCTCACTTCATATTACCGGAGTCACCTAGTGCAG	8680 fluorescence intensity (a.u.)
